Data published in the supplement of paper PMC10849652.
Some of the results follow.

The chains behind the UniProt entries cited, without tags or fusion partners. Where a name states a change or a piece, a line headed by the entry shows the natural chain unless it says otherwise.
UniProt Q5JS37: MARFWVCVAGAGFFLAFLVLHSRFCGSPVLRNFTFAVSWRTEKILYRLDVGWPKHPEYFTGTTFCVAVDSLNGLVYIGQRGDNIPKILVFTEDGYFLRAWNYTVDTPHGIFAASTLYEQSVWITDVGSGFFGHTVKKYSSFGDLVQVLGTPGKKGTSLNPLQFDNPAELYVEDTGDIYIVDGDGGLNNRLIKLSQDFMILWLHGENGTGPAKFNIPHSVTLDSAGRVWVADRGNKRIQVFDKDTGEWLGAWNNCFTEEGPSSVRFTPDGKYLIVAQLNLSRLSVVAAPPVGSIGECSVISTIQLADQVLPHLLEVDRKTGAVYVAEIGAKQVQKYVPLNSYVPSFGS
UniProt Q9ULX3: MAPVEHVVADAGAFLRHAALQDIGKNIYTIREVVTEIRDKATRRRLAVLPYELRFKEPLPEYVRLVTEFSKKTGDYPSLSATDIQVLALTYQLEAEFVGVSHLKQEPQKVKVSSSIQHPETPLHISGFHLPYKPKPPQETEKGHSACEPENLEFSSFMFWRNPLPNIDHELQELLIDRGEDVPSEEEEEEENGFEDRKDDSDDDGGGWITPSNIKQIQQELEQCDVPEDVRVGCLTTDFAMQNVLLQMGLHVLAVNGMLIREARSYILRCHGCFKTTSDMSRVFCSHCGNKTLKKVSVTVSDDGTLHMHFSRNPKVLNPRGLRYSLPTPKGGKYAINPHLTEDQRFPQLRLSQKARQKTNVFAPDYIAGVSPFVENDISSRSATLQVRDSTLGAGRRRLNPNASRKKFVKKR
UniProt O75323: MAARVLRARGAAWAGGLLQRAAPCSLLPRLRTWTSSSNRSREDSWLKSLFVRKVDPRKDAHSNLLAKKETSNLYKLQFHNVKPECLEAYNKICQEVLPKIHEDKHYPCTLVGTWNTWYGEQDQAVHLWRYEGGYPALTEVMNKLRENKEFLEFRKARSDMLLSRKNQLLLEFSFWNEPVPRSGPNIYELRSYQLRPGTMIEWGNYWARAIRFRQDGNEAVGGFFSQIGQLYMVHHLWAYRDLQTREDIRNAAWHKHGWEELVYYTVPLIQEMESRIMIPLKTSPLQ
UniProt Q9H8H0: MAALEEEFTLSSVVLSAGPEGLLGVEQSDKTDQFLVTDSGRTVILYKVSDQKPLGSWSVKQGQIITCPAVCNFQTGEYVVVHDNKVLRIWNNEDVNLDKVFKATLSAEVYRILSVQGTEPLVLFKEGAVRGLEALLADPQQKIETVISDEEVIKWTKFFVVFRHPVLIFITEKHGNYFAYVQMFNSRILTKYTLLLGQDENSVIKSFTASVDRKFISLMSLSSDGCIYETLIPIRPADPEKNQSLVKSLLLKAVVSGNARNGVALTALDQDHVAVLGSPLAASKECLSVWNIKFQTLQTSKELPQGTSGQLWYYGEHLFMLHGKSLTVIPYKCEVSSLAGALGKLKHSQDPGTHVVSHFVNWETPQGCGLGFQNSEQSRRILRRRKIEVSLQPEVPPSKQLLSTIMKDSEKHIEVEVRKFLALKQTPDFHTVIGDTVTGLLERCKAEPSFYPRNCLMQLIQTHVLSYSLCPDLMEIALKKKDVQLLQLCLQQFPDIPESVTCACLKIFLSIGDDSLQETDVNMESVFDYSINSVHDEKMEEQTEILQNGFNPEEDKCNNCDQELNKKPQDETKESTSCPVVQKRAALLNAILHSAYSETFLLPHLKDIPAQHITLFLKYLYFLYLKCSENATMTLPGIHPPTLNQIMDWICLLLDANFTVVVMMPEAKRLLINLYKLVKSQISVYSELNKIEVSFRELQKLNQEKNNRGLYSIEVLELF
UniProt O60936: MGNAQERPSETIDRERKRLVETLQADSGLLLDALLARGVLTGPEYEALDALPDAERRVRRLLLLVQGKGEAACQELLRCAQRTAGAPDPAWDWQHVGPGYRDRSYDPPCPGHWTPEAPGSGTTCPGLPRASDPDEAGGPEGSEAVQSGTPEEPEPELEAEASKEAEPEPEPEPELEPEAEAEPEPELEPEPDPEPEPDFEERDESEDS
UniProt P30419: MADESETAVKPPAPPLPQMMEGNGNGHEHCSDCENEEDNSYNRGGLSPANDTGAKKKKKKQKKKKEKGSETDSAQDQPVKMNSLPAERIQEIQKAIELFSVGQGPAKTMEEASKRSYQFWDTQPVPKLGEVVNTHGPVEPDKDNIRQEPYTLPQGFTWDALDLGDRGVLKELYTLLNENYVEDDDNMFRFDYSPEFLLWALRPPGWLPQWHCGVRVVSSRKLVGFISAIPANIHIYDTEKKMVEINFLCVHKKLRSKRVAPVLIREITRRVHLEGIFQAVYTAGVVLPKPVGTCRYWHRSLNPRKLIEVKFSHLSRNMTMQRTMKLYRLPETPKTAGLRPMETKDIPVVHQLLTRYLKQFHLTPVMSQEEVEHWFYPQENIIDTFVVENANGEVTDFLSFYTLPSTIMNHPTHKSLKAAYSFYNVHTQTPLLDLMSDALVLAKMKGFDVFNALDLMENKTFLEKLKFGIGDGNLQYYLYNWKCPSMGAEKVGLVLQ
UniProt P48681: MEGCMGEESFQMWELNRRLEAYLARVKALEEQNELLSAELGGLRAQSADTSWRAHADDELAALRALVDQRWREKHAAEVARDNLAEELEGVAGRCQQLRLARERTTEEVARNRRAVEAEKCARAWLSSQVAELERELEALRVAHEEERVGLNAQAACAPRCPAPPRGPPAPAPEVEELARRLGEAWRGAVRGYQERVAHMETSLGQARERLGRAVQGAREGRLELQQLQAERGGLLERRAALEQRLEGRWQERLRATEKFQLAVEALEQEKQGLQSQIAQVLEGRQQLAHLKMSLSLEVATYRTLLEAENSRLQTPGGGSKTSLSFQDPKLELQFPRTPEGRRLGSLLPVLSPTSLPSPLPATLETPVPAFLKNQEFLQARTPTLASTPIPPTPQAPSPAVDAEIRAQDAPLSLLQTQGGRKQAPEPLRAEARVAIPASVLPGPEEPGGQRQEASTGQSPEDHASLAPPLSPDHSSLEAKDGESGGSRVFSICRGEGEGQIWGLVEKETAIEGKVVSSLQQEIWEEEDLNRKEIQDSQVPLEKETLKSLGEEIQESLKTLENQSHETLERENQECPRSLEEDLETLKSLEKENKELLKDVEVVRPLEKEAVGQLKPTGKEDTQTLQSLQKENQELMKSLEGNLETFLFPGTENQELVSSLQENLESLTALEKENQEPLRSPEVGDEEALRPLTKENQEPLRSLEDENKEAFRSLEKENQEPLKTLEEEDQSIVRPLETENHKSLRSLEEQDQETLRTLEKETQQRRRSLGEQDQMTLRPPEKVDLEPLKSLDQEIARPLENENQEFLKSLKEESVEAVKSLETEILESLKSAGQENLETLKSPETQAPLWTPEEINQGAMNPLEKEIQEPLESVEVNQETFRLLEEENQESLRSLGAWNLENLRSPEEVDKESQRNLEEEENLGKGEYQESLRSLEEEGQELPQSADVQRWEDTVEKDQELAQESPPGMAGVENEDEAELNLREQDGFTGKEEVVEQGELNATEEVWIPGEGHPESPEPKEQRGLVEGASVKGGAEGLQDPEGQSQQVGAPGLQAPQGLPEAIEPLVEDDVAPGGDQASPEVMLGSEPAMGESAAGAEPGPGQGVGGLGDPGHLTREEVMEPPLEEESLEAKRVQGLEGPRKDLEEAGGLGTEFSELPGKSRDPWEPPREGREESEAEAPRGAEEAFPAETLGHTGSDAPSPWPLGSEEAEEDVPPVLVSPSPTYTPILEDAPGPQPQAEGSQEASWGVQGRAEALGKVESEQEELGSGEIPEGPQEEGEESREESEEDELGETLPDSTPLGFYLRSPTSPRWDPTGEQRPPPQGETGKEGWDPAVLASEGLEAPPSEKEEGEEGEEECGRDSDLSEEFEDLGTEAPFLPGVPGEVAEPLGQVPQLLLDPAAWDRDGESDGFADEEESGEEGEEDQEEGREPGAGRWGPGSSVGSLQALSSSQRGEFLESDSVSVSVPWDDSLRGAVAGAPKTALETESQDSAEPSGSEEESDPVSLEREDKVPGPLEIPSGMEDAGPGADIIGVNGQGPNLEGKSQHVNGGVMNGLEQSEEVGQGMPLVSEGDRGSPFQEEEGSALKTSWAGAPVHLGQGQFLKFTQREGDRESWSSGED
UniProt Q9UHC9: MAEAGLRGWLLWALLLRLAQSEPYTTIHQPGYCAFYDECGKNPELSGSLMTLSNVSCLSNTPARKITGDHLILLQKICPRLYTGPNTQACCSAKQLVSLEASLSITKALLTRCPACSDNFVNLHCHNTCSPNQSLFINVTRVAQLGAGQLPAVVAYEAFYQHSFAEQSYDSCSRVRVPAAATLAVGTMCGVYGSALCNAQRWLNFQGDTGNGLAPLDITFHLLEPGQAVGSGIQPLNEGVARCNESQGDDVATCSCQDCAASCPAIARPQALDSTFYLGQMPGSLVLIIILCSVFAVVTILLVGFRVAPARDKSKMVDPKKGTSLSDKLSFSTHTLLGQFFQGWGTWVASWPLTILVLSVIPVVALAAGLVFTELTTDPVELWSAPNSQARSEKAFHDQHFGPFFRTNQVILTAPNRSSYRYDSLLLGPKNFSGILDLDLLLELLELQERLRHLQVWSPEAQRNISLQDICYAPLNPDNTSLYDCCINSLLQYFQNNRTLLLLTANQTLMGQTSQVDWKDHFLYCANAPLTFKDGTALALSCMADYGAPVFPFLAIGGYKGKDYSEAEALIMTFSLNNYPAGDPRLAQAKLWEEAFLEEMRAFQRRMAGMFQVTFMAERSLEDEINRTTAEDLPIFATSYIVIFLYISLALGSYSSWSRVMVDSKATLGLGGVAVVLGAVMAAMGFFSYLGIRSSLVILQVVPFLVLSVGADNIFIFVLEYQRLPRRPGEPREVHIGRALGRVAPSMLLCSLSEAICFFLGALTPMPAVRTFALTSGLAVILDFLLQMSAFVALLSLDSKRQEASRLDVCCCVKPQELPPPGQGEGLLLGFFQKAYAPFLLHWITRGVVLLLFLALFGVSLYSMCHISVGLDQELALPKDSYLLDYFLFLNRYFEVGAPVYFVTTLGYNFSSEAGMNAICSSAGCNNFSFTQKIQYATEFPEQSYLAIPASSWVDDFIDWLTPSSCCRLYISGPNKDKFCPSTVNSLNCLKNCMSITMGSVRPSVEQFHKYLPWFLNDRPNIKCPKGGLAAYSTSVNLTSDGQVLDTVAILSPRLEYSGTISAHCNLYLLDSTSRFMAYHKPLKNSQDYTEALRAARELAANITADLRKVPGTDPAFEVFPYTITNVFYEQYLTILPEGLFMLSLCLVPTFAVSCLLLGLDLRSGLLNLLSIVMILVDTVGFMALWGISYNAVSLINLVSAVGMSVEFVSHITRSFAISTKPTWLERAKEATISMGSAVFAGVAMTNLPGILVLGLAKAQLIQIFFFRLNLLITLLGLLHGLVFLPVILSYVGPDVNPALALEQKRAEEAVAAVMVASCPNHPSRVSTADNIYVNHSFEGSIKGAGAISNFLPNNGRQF
UniProt Q9Y239: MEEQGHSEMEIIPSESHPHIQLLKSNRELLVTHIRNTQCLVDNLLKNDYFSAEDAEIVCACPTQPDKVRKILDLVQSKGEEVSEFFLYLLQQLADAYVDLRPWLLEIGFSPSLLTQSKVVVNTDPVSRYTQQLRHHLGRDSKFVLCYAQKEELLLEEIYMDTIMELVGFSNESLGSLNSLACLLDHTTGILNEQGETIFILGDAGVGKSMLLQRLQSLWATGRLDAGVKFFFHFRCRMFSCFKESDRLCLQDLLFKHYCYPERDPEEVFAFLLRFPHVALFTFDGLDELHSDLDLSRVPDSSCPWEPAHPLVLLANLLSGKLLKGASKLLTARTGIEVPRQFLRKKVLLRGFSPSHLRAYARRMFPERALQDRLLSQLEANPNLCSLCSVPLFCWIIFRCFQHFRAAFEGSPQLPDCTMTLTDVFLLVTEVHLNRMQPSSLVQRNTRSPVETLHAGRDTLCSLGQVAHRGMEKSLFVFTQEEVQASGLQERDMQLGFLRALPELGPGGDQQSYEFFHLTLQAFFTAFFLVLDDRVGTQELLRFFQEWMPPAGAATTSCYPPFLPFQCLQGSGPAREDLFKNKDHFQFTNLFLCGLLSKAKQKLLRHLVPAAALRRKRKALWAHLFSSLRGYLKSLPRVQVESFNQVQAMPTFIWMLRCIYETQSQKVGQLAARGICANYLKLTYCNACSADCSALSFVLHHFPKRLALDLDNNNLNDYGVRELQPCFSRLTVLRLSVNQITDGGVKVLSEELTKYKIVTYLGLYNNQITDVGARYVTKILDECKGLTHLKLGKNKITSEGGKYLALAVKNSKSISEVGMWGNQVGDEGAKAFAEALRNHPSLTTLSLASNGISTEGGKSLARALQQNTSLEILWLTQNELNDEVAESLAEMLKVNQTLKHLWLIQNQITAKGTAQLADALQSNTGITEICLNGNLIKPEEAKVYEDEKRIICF

How the values were obtained:
Experiment in all cases: log2 fold change, soluble protein after heating vs DMSO (PISA); higher = thermal stabilisation; K562 cells, 10 uM, 30 min; active = over 0.2 and 3.5 SD of the protein, either way, in both replicates (recomputed)
[1] = compound: CC[C@@H]1C(=O)N(C)c2cnc(Nc3ccc(C(=O)NC4CCN(C)CC4)cc3OC)nc2N1C1CCCC1
Method in brief: (§1)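 Thermal stability values are relative to control samples and come from duplicates. They are expressed as log2 fold changes. For measurement, K562 cells (2×10^6 cells/mL) received 10 μM compound for 30 min, and aliquots were heated for 3 min over 48°C-58°C, pooled, and extracted at 4°C in PBS with 0.5% NP-40. Soluble protein, the supernatant after 21,000xg for 90 min, was quantified by TMTpro 16plex LC-MS/MS with equalised channel sums.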

volasertib = compound: CC[C@@H]1C(=O)N(C)c2cnc(Nc3ccc(C(=O)N[C@H]4CC[C@H](N5CCN(CC6CC6)CC5)CC4)cc3OC)nc2N1C(C)C [volasertib]
Method in brief: as §1

[2] = compound: CC[C@H](C)N1C=C(C2=C(C=C(C=C21)C3=CN=C(C=C3)N4CCNCC4)C(=O)NCC5=C(C=C(NC5=O)C)C)C
Method in brief: as §1

epoxomicin = compound: CC[C@H](C)[C@@H](C(=O)N[C@@H]([C@@H](C)O)C(=O)N[C@@H](CC(C)C)C(=O)[C@]1(CO1)C)NC(=O)[C@H]([C@@H](C)CC)N(C)C(=O)C [epoxomicin]
Method in brief: as §1

[3] = compound: CCn1cc(-c2ccnc3[nH]c(-c4cccc(CN(C)C)c4)cc23)c(-c2ccc(NC(=O)N(C)C)cc2)n1
Method in brief: as §1

[4] = compound: CN(C)CC(=O)Nc1ccc2[nH]c(=O)c3ccccc3c2c1
Method in brief: as §1

[5] = compound: CN1C2=C(C3=C1C(=O)N(N=C3)CC4=CC(=CC=C4)N)SC(=C2)S(=O)C
Method in brief: as §1

[6] = compound: CN1CCC(CNc2ccc3ncc(-c4cccc(OC(F)(F)F)c4)n3n2)CC1
Method in brief: as §1

saracatinib = compound: CN1CCN(CCOc2cc(OC3CCOCC3)c3c(Nc4c(Cl)ccc5c4OCO5)ncnc3c2)CC1 [saracatinib]
Method in brief: as §1

sotrastaurin = compound: CN1CCN(c2nc(C3=C(c4c[nH]c5ccccc45)C(=O)NC3=O)c3ccccc3n2)CC1 [sotrastaurin]
Method in brief: as §1

Tubastatin A = compound: CN1CCc2c(c3ccccc3n2Cc2ccc(C(=O)NO)cc2)C1 [Tubastatin A]
Method in brief: as §1

[7] = compound: CNC(=O)C1=CC=CC=C1NC2=NC(=NC=C2Cl)NC3=C(C=C(C=C3)N4CCOCC4)OC
Method in brief: as §1

defactinib = compound: CNC(=O)c1ccc(Nc2ncc(C(F)(F)F)c(NCc3nccnc3N(C)S(C)(=O)=O)n2)cc1 [defactinib]
Method in brief: as §1

rucaparib = compound: CNCc1ccc(-c2[nH]c3cc(F)cc4c3c2CCNC4=O)cc1 [rucaparib]
Method in brief: as §1

[8] = compound: CNc1nc(-c2ccc3c(N)n[nH]c3c2)cc(N2C[C@@H](C(=O)NC3CCCCC3)CC[C@H]2C)n1
Method in brief: as §1

encorafenib = compound: COC(=O)N[C@@H](C)CNc1nccc(-c2cn(C(C)C)nc2-c2cc(Cl)cc(NS(C)(=O)=O)c2F)n1 [encorafenib]
Method in brief: as §1

[9] = compound: COC(=O)[C@H](CCSC)NC(=O)C1=C(C=C(C=C1)NC[C@H](CS)N)C2=CC=CC=C2
Method in brief: as §1

[10] = compound: CCn1c(C(=O)N(C2CC2)C2CC2)cc2c3c(ncn3C)c(Nc3cc(C)n(C)n3)nc21
Method in brief: as §1

rosiglitazone = compound: CN(CCOC1=CC=C(C=C1)C[C@H]2C(=O)NC(=O)S2)C3=CC=CC=N3 (racemic) [rosiglitazone]
Method in brief: as §1

alvocidib = compound: CN1CC[C@H](c2c(O)cc(O)c3c(=O)cc(-c4ccccc4Cl)oc23)[C@H](O)C1 [alvocidib]
Method in brief: as §1

Measured: log2 fold change

NELFB isoform 2 (UniProt Q8WX92)
active: volasertib -0.68
inactive: [1] -0.176 | [2] 0.118 | epoxomicin 0.072 | [3] -0.012 | [4] 0.068 | [5] -0.02 | [6] -0.116 | saracatinib -0.016 | sotrastaurin -0.065 | Tubastatin A 0.04 | [7] -0.026 | defactinib -0.199 | rucaparib -0.034 | [8] -0.005 | encorafenib 0.079 | [9] -0.057

NFKB1 isoform 2 (UniProt P19838)
inactive: [1] 0.003 | volasertib -0.158 | [2] 0.046 | epoxomicin -0.187 | [10] 0.014 | [3] -0.124 | [4] 0.033 | rosiglitazone 0.058 | [5] 0.155 | [6] -0.017 | saracatinib -0.118 | sotrastaurin -0.234 | Tubastatin A 0.111 | [7] -0.027 | defactinib -0.058 | rucaparib 0.097 | [8] -0.015 | encorafenib 0.097 | [9] -0.085

NHLRC3 (UniProt Q5JS37)
inactive: [1] 0.004 | volasertib 0.043 | [2] -0.125 | epoxomicin 0.014 | [10] 0.044 | [3] 0.076 | rosiglitazone -0.042 | [5] -0.098 | [6] 0.25 | saracatinib 0.109 | sotrastaurin 0.045 | alvocidib -0.073 | Tubastatin A -0.124 | [7] -0.037 | rucaparib -0.217 | [8] -0.031 | encorafenib 0.058

NRBF2 (UniProt Q96F24)
inactive: [1] 0.012 | volasertib -0.08 | [2] 0.045 | epoxomicin 0.016 | [10] 0.019 | [3] -0.033 | [4] 0.015 | rosiglitazone -0.009 | [5] -0.008 | [6] 0.005 | saracatinib -0.022 | sotrastaurin -0.013 | alvocidib -0.036 | Tubastatin A -0.054 | [7] 0.025 | defactinib -0.027 | rucaparib -0.02 | [8] -0.049 | encorafenib 0.033 | [9] 0.062

NOB1 (UniProt Q9ULX3)
inactive: [1] -0.053 | volasertib -0.026 | [2] 0.093 | epoxomicin -0.02 | [3] 0.026 | [4] -0.011 | [5] 0.04 | [6] -0.049 | saracatinib -0.022 | sotrastaurin -0.092 | Tubastatin A 0.045 | [7] -0.047 | defactinib -0.009 | rucaparib 0.141 | [8] 0.103 | encorafenib 0.007 | [9] 0

NF1 (UniProt P21359)
inactive: [1] 0.115 | volasertib -0.041 | [2] -0.025 | epoxomicin -0.279 | [10] -0.043 | [3] 0.142 | [4] 0.02 | rosiglitazone 0.106 | [5] -0.005 | [6] -0.223 | saracatinib -0.124 | sotrastaurin 0.103 | alvocidib 0.039 | Tubastatin A 0.078 | [7] 0.003 | defactinib 0.016 | rucaparib -0.052 | [8] -0.044 | encorafenib -0.205 | [9] -0.035

NIPSNAP2 (UniProt O75323)
inactive: [1] 0.043 | volasertib 0.009 | [2] -0.003 | epoxomicin 0.07 | [3] -0.115 | [4] -0.041 | [5] -0.083 | [6] 0.028 | saracatinib -0.017 | sotrastaurin -0.082 | Tubastatin A -0.019 | [7] 0.104 | defactinib -0.003 | rucaparib -0.085 | [8] -0.08 | encorafenib -0.028 | [9] 0.033

NIBAN2 (UniProt Q96TA1)
inactive: [1] -0.037 | volasertib -0.102 | [2] 0.043 | epoxomicin 0.039 | [10] -0.021 | [3] -0.023 | [4] -0.017 | rosiglitazone 0.011 | [5] -0.042 | [6] -0.018 | saracatinib 0.002 | sotrastaurin 0.035 | alvocidib -0.009 | Tubastatin A 0.013 | [7] -0.011 | defactinib -0.07 | rucaparib -0.025 | [8] -0.049 | encorafenib 0.004 | [9] 0.016

NOP53 (UniProt Q9NZM5)
inactive: [1] 0.174 | volasertib 0.393 | [2] -0.014 | epoxomicin -0.009 | [3] 0.013 | [4] -0.111 | [5] 0.516 | [6] 0.599 | saracatinib -0.063 | sotrastaurin -0.014 | Tubastatin A 0.141 | [7] -0.019 | defactinib 0.62 | rucaparib 0.36 | [8] 0.035 | encorafenib 0.174 | [9] -0.022

NR3C1 isoform 3 (UniProt P04150)
inactive: [1] -0.196 | volasertib -0.288 | [2] -0.103 | epoxomicin -0.301 | [10] -0.13 | [5] 0.239 | saracatinib -0.053 | alvocidib -0.059 | Tubastatin A -0.071 | [7] -0.065 | rucaparib 0.065 | [8] 0.045 | encorafenib -0.298

NFKBIE (UniProt O00221)
inactive: [1] -0.098 | volasertib -0.115 | [2] 0.058 | epoxomicin 0.121 | [10] -0.061 | [3] 0.026 | [4] 0.003 | [5] -0.039 | [6] 0.084 | saracatinib 0 | sotrastaurin 0.161 | alvocidib -0.025 | Tubastatin A -0.025 | [7] -0.005 | defactinib -0.224 | rucaparib 0.046 | [8] -0.072 | encorafenib 0.029 | [9] -0.023

NOL11 (UniProt Q9H8H0)
inactive: [1] 0.029 | volasertib -0.097 | [2] -0.025 | epoxomicin -0.015 | [3] -0.027 | [4] -0.005 | [5] -0.028 | [6] 0.126 | saracatinib 0.093 | sotrastaurin 0.022 | Tubastatin A -0.08 | [7] 0.007 | defactinib 0.186 | rucaparib 0.071 | [8] 0.002 | encorafenib -0.012 | [9] -0.009

NNT (UniProt Q13423)
inactive: [1] 0 | volasertib 0.013 | [2] 0.036 | epoxomicin 0.023 | [3] -0.073 | [4] 0.015 | [5] -0.097 | [6] -0.008 | saracatinib 0.005 | sotrastaurin 0 | Tubastatin A -0.01 | [7] 0.017 | defactinib -0.009 | rucaparib -0.053 | [8] -0.036 | encorafenib -0.001 | [9] -0.014

NOL3 isoform 3 (UniProt O60936)
inactive: [1] 0.054 | volasertib 0.014 | [2] 0.055 | epoxomicin -0.037 | [4] 0.201 | [5] -0.038 | saracatinib -0.011 | sotrastaurin 0 | alvocidib 0.198 | Tubastatin A 0.13 | defactinib -0.039 | rucaparib 0.048 | [8] 0.017 | encorafenib -0.05 | [9] -0.059

NMNAT3 (UniProt Q96T66)
inactive: [1] -0.005 | volasertib -0.084 | epoxomicin 0.005 | [10] -0.122 | rosiglitazone -0.258 | [5] -0.174 | saracatinib -0.043 | sotrastaurin 0.212 | [7] -0.077 | rucaparib 0.032 | [8] -0.105 | encorafenib -0.008

NMT1 (UniProt P30419)
inactive: [1] 0.028 | volasertib -0.21 | [2] 0.036 | epoxomicin 0.014 | [3] -0.028 | [4] -0.022 | [5] 0.007 | [6] -0.097 | saracatinib -0.046 | sotrastaurin 0.019 | Tubastatin A -0.029 | [7] -0.003 | defactinib 0.015 | rucaparib -0.009 | [8] 0.013 | encorafenib -0.002 | [9] 0.024

NES (UniProt P48681)
inactive: [1] 0.091 | volasertib 0.047 | epoxomicin -0.117 | [10] -0.092 | [3] 0.428 | [4] -0.143 | rosiglitazone -0.074 | [5] 0.31 | [6] 0.045 | saracatinib -0.055 | sotrastaurin 0 | alvocidib 0.059 | Tubastatin A 0.034 | [7] 0.005 | defactinib 0.281 | rucaparib 0.194 | [8] -0.05 | encorafenib 0.09 | [9] -0.061

2 successive entries out of the list so far:
NOL3 isoform 3 (UniProt O60936)
inactive: [1] 0.054 | volasertib 0.014 | [2] 0.055 | epoxomicin -0.037 | [4] 0.201 | [5] -0.038 | saracatinib -0.011 | sotrastaurin 0 | alvocidib 0.198 | Tubastatin A 0.13 | defactinib -0.039 | rucaparib 0.048 | [8] 0.017 | encorafenib -0.05 | [9] -0.059

NMNAT3 (UniProt Q96T66)
inactive: [1] -0.005 | volasertib -0.084 | epoxomicin 0.005 | [10] -0.122 | rosiglitazone -0.258 | [5] -0.174 | saracatinib -0.043 | sotrastaurin 0.212 | [7] -0.077 | rucaparib 0.032 | [8] -0.105 | encorafenib -0.008

Additional entries.

NPC1L1 (UniProt Q9UHC9)
inactive: [1] -0.029 | volasertib -0.016 | [2] 0.2 | [4] -0.016 | [5] -0.081 | saracatinib -0.026 | sotrastaurin 0.033 | Tubastatin A 0.005 | defactinib -0.093 | rucaparib -0.06 | [8] -0.051 | encorafenib -0.038 | [9] 0.093

NOD1 (UniProt Q9Y239)
inactive: [1] 0.174 | volasertib 0.297 | epoxomicin 0.061 | [3] -0.065 | rosiglitazone 0.026 | [5] 0.229 | [6] 0.028 | saracatinib -0.134 | sotrastaurin 0.01 | alvocidib 0.239 | rucaparib -0.114 | [8] 0 | encorafenib -0.227
